{"source": "patent US20060105442", "about": "“Promoters and proteins from Clostridium thermocellum and uses thereof” (published 2006)", "tested_on": "C. thermocellum crude extract, cellobiose-grown (GlyR3 activity assayed) (Clostridium thermocellum)", "assay": "EMSA", "settings": "200 and 500 ng extract of cellobiose-grown cells; protein in an extract; label: 5'-biotin", "note": "Construct, isoform or probe ends are uncertain for at least one entry. Results from cells or extracts need not show a direct contact. No signal at the amounts used counts as a negative."}
{"sequence": "AATCAATAAAATTATAACATATTACTTCAAAAGTGGGGACAAAAAAGAACAAAAAAATTGAAATTTTGATGAAAAATACAAGATATGAATTAAGTGGGCCGAATAAAAACTGGACAGAGAAGAAGAAAACGTGATATAATTAAATTAGAATGAACGCGCGTACATTATTGAATAATCCAGTGTTAAATGGTTTCAGTTTACGATTTCAAATGTTTATATCCAATTTACATTTAAAAACATACAAAACATCAAAAGTATTTAATACCAATATTTAAAACACAATATTTCAGGAGGAAAAAA (double strand) [celC promoter first (upstream) 100 bp half]", "values": [{"measurement": "binding result", "value": "no binding"}]}
